# Results: the supplement of paper PMC10735217
# Where a name gives a salt, the structure may show the parent alone. The list shows a part of the results. Repeats in this data set agree poorly, so a single value says little.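 In a drug-repurposing library screen, luminescence reads luciferase driven by eight TEAD-binding elements, stably integrated into human kidney-derived cells. Compounds scoring over five robust Z scores above the plate mean are called hits.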
# Test system: HEK293A TEAD-LUC reporter
# Test: TEAD-luciferase reporter activity (YAP activation), robust Z score vs plate; higher = stronger YAP/TEAD activation
# Conditions: 24 h
Compound,TEAD-luciferase reporter activity (compound concentration: 200 nM),TEAD-luciferase reporter activity (compound concentration: 2 uM),TEAD-luciferase reporter activity (compound concentration: 10 uM)
CC1(O)C=C[C@]2(C)C3CC[C@@]4(C)C(CC[C@@H]4O)C3CC[C@@]2(C)C1 (stereo partly drawn),active: 5.37,inactive: 0.109,inactive: 0.593
CCN1C[C@]2(COC)CC[C@H](OC)[C@]34C1[C@@H]([C@H](OC)[C@H]23)[C@@]1(OC(C)=O)C[C@H](OC)[C@@]2(O)C[C@@H]4[C@@H]1[C@H]2C(=O)c1ccc(OC)cc1,inactive: -0.854,inactive: -0.244,inactive: -0.549
Cc1cccc(C)c1NC1=NCCCS1 [Xylazine HCl],inactive: -3.02,–,inactive: 4.99
Cc1cccc(C)c1NC1=NCCCS1,–,inactive: -0.414,–
C[C@@H]1C[C@@H]([C@H](O)CC2CC(=O)NC(=O)C2)C(=O)[C@@H](C)C1 [Cycloheximide],inactive: -2.44,inactive: -0.419,inactive: 2.84
C[C@@H](N)C(=O)N[C@@H](CO)C(=O)N[C@H](C(=O)N[C@H](C(=O)N[C@H](C(=O)N[C@@H](CC(N)=O)C(=O)N[C@@H](Cc1ccc(O)cc1)C(=O)N[C@H](C(N)=O)[C@@H](C)O)[C@@H](C)O)[C@@H](C)O)[C@@H](C)O,inactive: -1.44,inactive: -2.1,inactive: -0.89
C[C@]12CCC(=O)C=C1CC[C@@H]1[C@@H]2CC[C@]2(C)OC(=O)CC[C@@H]12 [Testololactone],inactive: 0.657,inactive: -1.06,inactive: 0.93
CC(C(=O)c1ccccc1)N(C)C (stereo not drawn),inactive: -1.15,inactive: -0.648,inactive: -0.899
CC(Cc1ccccc1)NCCCCl (stereo not drawn),inactive: -0.686,inactive: -0.97,inactive: -0.383
CC(=O)O[C@H]1CC[C@H]2[C@@H]3CC[C@H]4CC(=O)C=C(C)[C@]4(C)[C@H]3CC[C@]12C,inactive: -0.38,inactive: 0.468,inactive: 0.35
CC(Cc1ccc(O)cc1)NCC(O)c1cc(N)cc(CO)c1 (stereo not drawn),inactive: -0.388,inactive: -0.494,inactive: -0.0287
[Cl][Hg][Cl],inactive: 0.367,inactive: 0.113,inactive: -0.252
CCC(=O)O[C@@H]1C=C2CCC3C(CCC4(C)C3CC[C@@H]4OC(=O)CC)C2CC1 (stereo partly drawn),inactive: -0.636,inactive: -2.11,inactive: -0.381
COC(C(=O)OC(C)CN(C)C)(c1ccccc1)c1ccccc1 (stereo not drawn),inactive: 3.17,inactive: -0.151,inactive: 3.33
"CC(=O)O[C@H]1CC[C@]2(C)C3C(CC[C@@H]2C1)[C@@]1(O)CC[C@H](c2ccc(=O)oc2)[C@@]1(C)C[C@H]3OC(C)=O (stereo partly drawn) [Gamabutotalin, Derivative of]",inactive: -0.611,inactive: 1.28,inactive: 0.493
CC(C)NC(=O)CNC(=O)[C@@H](Cc1ccccc1)N(C)C(=O)CNC(=O)[C@@H](C)NC(=O)[C@@H](N)Cc1ccc(O)cc1,inactive: -1.05,inactive: -0.795,inactive: -1.82
CC(C)C(Br)C(=O)NC(N)=O (stereo not drawn),inactive: -0.462,inactive: 1.89,inactive: -1.23

# 2 entries from above, as tab-separated lines.
Compound	TEAD-luciferase reporter activity (compound concentration: 200 nM)	TEAD-luciferase reporter activity (compound concentration: 2 uM)	TEAD-luciferase reporter activity (compound concentration: 10 uM)
CC(Cc1ccccc1)NCCCCl (stereo not drawn)	inactive: -0.686	inactive: -0.97	inactive: -0.383
CC(C)C(Br)C(=O)NC(N)=O (stereo not drawn)	inactive: -0.462	inactive: 1.89	inactive: -1.23

# Next part:

Compound,TEAD-luciferase reporter activity (compound concentration: 200 nM),TEAD-luciferase reporter activity (compound concentration: 2 uM),TEAD-luciferase reporter activity (compound concentration: 10 uM)
CCOc1cccc(c1)[C@@]1(CCC(CC1)C)N1CCN(CC1)c1ccccc1 (stereo not drawn),inactive: 1.01,inactive: -0.682,inactive: -0.67
CC(C)c1c(CN(C)C(C)Cc2ccccc2)n(C)n(-c2ccccc2)c1=O (stereo not drawn),inactive: -0.175,inactive: 2.91,inactive: 0.0461
Nc1ncnc2c1ccn2[C@@H]1O[C@H](CO)[C@@H](O)[C@H]1O,inactive: -0.686,active: 5.19,inactive: 1.51
Cn1c(COP(=O)(NCCBr)NCCBr)cnc1[N+](=O)[O-] [Evofosfamide],inactive: 0.357,inactive: -0.332,inactive: 0.723
COc1ccc2c(c1OC)C(=O)O[C@@H]2[C@H]1c2cc3c(cc2CCN1C)OCO3,inactive: -0.283,inactive: -2.01,inactive: 1.7
COc1ccc(C[C@H]2NC[C@H](O)[C@H]2OC(C)=O)cc1,inactive: 0.45,inactive: -3.08,inactive: -1.85
C[N+]1(CC2CC2)[C@@H]2C[C@@H](OC(=O)[C@H](CO)c3ccccc3)C[C@H]1[C@@H]1O[C@@H]12 (stereo partly drawn) [Cimetropium bromide],inactive: -0.938,inactive: -0.97,inactive: -0.0482
CN1CCCN/C1=C\OC(=O)C(O)(c1ccccc1)C1CCCCC1 (stereo not drawn),inactive: -0.424,inactive: 2.91,inactive: -1.29
O=S1(=O)[O][Pt]2([NH]CC3(CCCCC3)C[NH]2)[O]1 [spiroplatin],–,inactive: -0.788,inactive: 0.372
C[C@]12COC(=O)C[C@@H]1CC[C@@H]1[C@@H]2CC[C@@]2(C)[C@H]1CC[C@]2(C)O [Oxandrolone],inactive: 0.176,inactive: -1.41,inactive: 3.27
CN[C@@H](CCOc1ccc([N+](=O)[O-])cc1)c1ccc(OC(=O)N(C)C)cc1,inactive: -0.731,inactive: 0.623,inactive: 1.19
CCCC(=O)O[C@H]1CN2CC[C@H](O)[C@@H]2[C@@H](O)[C@@H]1O [Celgosivir],inactive: 1.62,inactive: 1.03,inactive: 0.891
CCC(Sc1ccccc1)C(=O)O[C@@H]1C[C@H]2CC[C@@H](C1)N2C (stereo partly drawn),inactive: 1.1,inactive: 1.27,inactive: 0.191
COC(=O)c1ccc(CC(C)NCC(O)c2ccccc2)cc1 (stereo not drawn),inactive: -0.996,inactive: -1.09,inactive: 2.37
C[C@H](Cc1ccc(OCC(=O)O)cc1)NC[C@H](O)c1csc(C(F)(F)F)n1,inactive: 0.345,inactive: -0.311,inactive: 0.326
COc1cccc2c1C(=O)c1c(O)c3c(c(O)c1C2=O)C[C@@](O)(C(C)O)C[C@@H]3OC1CC(N)C(O)C(C)O1 (stereo partly drawn),inactive: -0.985,inactive: -0.122,inactive: 3.19
CO[C@H](C)[C@](O)(C(=O)OCC1=CCN2CC[C@H](O)[C@@H]12)C(C)C,inactive: 0.99,inactive: 1.03,inactive: -1.46
